Measurements reported in article PMC12613816, “Discovery of Novel Isoxazole-Based Small-Molecule Toll-Like Receptor 8 Antagonists” (Journal of Medicinal Chemistry, 2025).
Results are given in words; binding and its absence hold for the method and conditions named. Binding seen in cells or lysates may run through a third protein. Some entries that bind do so weakly or less than the wild type.

Sequences of proteins named here, by UniProt entry; tags and fusion partners are left off.
UniProt Q99836: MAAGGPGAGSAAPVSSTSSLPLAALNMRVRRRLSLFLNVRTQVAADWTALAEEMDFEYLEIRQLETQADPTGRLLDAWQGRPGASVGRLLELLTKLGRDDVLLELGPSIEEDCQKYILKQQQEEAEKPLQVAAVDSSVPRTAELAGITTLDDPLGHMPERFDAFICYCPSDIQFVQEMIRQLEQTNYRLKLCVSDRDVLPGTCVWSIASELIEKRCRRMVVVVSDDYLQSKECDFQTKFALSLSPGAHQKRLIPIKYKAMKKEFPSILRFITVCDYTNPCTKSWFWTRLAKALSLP

Molecular target: T1, Toll-like receptor 8 (human (endogenous in THP-1)) (UniProt Q9NR97)
T1 sequence: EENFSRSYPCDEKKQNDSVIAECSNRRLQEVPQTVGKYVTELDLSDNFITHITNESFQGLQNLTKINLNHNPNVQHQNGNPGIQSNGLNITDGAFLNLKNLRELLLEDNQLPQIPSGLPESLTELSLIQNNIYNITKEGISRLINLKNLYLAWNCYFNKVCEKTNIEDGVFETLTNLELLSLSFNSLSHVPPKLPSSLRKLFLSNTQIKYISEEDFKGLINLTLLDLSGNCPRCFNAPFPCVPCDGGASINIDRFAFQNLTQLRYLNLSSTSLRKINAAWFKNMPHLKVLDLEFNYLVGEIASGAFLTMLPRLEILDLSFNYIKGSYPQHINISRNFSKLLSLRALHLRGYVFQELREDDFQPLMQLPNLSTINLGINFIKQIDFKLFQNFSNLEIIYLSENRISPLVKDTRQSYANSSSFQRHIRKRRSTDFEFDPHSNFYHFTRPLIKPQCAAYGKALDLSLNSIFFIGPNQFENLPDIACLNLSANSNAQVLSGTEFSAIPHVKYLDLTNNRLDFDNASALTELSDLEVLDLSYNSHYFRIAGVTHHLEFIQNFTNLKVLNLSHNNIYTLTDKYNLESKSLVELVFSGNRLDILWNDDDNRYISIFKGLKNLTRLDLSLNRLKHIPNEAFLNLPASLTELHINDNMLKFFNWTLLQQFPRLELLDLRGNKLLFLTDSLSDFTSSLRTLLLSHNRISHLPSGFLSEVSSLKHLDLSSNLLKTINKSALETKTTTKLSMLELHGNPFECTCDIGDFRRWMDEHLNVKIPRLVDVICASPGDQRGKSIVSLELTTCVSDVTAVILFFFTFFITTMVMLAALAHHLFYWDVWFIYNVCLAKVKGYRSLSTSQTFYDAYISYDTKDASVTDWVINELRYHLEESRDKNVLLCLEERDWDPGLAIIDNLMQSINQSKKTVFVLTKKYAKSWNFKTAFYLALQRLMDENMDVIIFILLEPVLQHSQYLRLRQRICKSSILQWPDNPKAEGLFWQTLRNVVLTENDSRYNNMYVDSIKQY
Test: co-IP; THP-1 macrophages incubated with or without compound 10 (10 uM, 1 h), then TL8-506 (0.6 uM, 30 min); RIPA lysates incubated with mouse anti-TLR8 mAb 2 h at 4 C, protein A/G PLUS agarose overnight at 4 C, 4 washes with RIPA; Western blot for hTLR8 and MyD88; mouse IgG2b isotype control

MyD88 (from UniProt Q99836 1-296)
binding: binds
